Laboratory results published in patent US7452865B2, “Antagonistic analogs of GH RH (2003)” (The Administrare's of the Tulane Educational Fund, priority 2004, dated 2008).
Some entries share one result that the patent states for a list of compounds. Some compounds share one range, which may span the group rather than tell each member.

Legend:
[1] = test system: PC-3 human prostate cancer xenografts; assay: PC-3 xenografts in nude mice, Experiment 2: tumor growth; format: in vivo; settings: 5 μg/day; for decrease of the tumor volumes and tumor weights of PC-3 cancers: span over the six peptides; for increase of the tumor volume doubling times: upper limit over the six peptides
Protocol: Male nude mice were implanted s.c. with 3 mm^3 pieces of PC-3 human hormone-independent prostate cancer tissue on both flanks. When tumors reached a volume of approx. 50 mm^3, the mice were divided into 5 experimental groups with 7 to 8 animals in each group and received single daily injections for 28 days as follows: 1. Control (vehicle solution); 2. JV-1-38 (10 μg/day s.c.); 3 Peptide 31 (10 μg/day s.c.); 4. Peptide 67 (10 μg/day s.c.); 5. Peptide 62 (10 μg/day s.c.). Tumor volumes were measured twice a week. The experiment was ended on day 29 by sacrificing the mice under Isoflurane anesthesia. Resulting tumors were cleaned, weighed, and snap-frozen until further analyses. Trunk blood was collected from the abdominal aorta and serum was separated for RIA measurement of IGF-I. Statistical analyses of the measurement results were done by two-tailed t-test; data are presented as the means±S.E.
Experiment 2 was similar to Experiment 1, with the difference that Experiment 2 was started when PC-3 tumors had grown to approximately 30 mm^3 in volume. At this time, the animals were divided into 8 experimental groups with 8 animals in each group, and received single daily injections for 28 days as follows. 1. Control (vehicle solution); 2. JV-1-38 (10 μg/day s.c.); 3. Peptide 46 (5 μg/day: s.c.); 4. Peptide 77 (5 μg/day s.c); 5. Peptide 76 (5 μg/day s.c.); 6. Peptide 70 (5 μg/day s.c.); 7 Peptide 79 (5 μg/day s.c.); 8. Peptide 80 (5 μg/day s.c.). Further details of Experiment 2 are the same as for Experiment 1.

IGF-I = assay: PC-3 xenografts, Experiment 2: serum IGF-I (RIA); format: in vivo, nude mice; settings: 5 μg/day s.c., 28 days, vs control
From the text: For the measurement of GH and IGF-I levels in the serum, as well as IGF-I and IGF-II concentrations in the cytosol fraction of tumors, blood samples and tumor samples were collected and processed as described (Braczkowski R, Schally A V, Plonowski A, Varga J L, Groot K, Krupa M, Armatis P, Cancer 95: 1735-1745, 2002), hereby incorporated by reference. Briefly, blood samples are centrifuged to separate the serum, tumors are homogenized and centrifuged to separate the cytosol fraction. Serum GH is then measured by the double-antibody RIA method. Before measurement by RIA, IGF-I and IGF-II are extracted from serum and cytosol fractions using an acid-ethanol cryoprecipitation method that eliminates most of the IGF binding proteins, which can interfere with the RIA. IGF-I concentration is measured by RIA using IGF-I as a standard and goat anti-IGF-I antibody (both from DSL Inc., Webster, Tex.). IGF-II concentration is measured by RIA using human recombinant IGF-II (Bachem) as a standard and anti-IGF-II monoclonal antibody (Amano International Enzyme, Troy, Va.).
Male nude mice were implanted s.c. with 3 mm^3 pieces of PC-3 human hormone-independent prostate cancer tissue on both flanks. […] Tumor volumes were measured twice a week. […]

Row | Substance | decrease of the tumor volumes and tumor weights of PC-3 cancers [1] | increase of the tumor volume doubling times [1] | Serum IGF-I (% inhibition) (IGF-I)
1 | [CH3(CH2)6CO-Tyr^1, D-Arg^2, Phe(pCl)^6, Amp^9, Tyr(Me)^10, Abu^15, Nle^27, D-Arg^28, Har^29]hGH-RH(1-29)NH2 [Peptide 70] | 20-64% | up to 101 % of the control value | 31%-42%
2 | [CH3(CH2)6CO-Tyr^1, D-Arg^2, Phe(pCl)^6, Ala^8, His^9, Tyr(Et)^10, His^11, Abu^15, Nle^27, D-Arg^28, Har^29]hGH-RH(1-29)NH2 [Peptide 80] | 20-64% | up to 101 % of the control value | 31%-42%
3 | [HOOC(CH2)12CO-Tyr^1, D-Arg^2, Phe(pCl)^6, Cit^8, Amp^9, Tyr(Me)^10, His^11, Abu^15, Nle^27, D-Arg^28, Har^29]hGH-RH(1-29)NH2 [Peptide 77] | 20-64% | up to 101 % of the control value | 
4 | [PhAc-Tyr^1, D-Arg^2, Phe(pCl)^6, Har^9, Tyr(Me)^10, Abu^15, Nle^27, D-Arg^28, Har^29]hGH-RH(1-29)NHEt [Peptide 46] | 20-64% | up to 101 % of the control value | 
5 | [CH3(CH2)6CO-Tyr^1, D-Arg^2, Phe(pCl)^6, Cit^8, Amp^9, Tyr(Me)^10, His^11, Abu^15, Nle^27, D-Arg^28, Har^29]hGH-RH(1-29)NH2 [Peptide 76] | 20-64% | up to 101 % of the control value | 
